Test results: EP3878446A1, “HSD11B1 INHIBITORS FOR USE IN IMMUNOTHERAPY AND USES THEREOF” (UNIVERSITE DE GENEVE, priority 2020, dated 2021)

Test system: human peripheral blood mononuclear cell (PBMC)
Experiment: antigen recall assay (IFNγ secretion by CMV-stimulated PBMC, ELISA)
Assay type: cell-based
Details: co-treatment: 1 µM HSD11B1 inhibitor + 1 µg/ml anti PD-1 (G4K), compared to anti-PD-1 or HSD11B1 inhibitor alone, 1 µg/ml CMV antigen, 50 ng/ml cortisone, 6 days, Fig. 1
Excerpt: Response to immunotherapy rely on critical biological steps including antigen presentation and T cell activation. Therefore, the therapeutic potential of combining immunotherapy with HSD11B1 inhibition was investigated in an antigen recall assay as described below. Antigen recall assay is the gold standard in vitro method to assess the bioactivity of immune checkpoint inhibitors because it measures at the same time the potential of antigen presenting cells to activate T cell and the actual T cell activation, taking into account thereby the two critical mechanisms required for an optimal response to immunotherapy. The level of IFNγ secreted in this human immune cell-based assay is considered as a good indicator of the T cells activation to immunomodulatory molecules. Cryopreserved human peripheral blood mononuclear cell (PBMC) isolated from cytomegalovirus (CMV) positive heathy donors were thawed in a 37°C water bath and seeded in round bottom 96 well plates at 2 X 10^5 cells/well in 150 µL final volume of RPMI media supplemented with 10% fetal bovin serum, 1% non-essential amino acids, 0.01M Hepes, 1% Penicilin/Streptomycin, 1% L-glutamine and 50 ng/ml cortisone). […]

N#Cc1ccc(-c2ccc(S(=O)(=O)Nc3cccc(N)n3)cc2)cc1 [PF-915275, N-(6-aminopyridin-2-yl)-4-(4-cyanophenyl) benzene sulfonamide]
level on IFNγ: significantly increased
